This passage reports binding results from publication PMC9910797.

These are yes or no findings as the source states them, for the method shown. Some results given as binding are weak or reduced against the parent protein; the word gives no strength.

Test [1] addresses T1, BRC-1 (C. elegans BRCA1 ortholog), full length, wild type (C. elegans) (UniProt B6VQ60).
T1 sequence: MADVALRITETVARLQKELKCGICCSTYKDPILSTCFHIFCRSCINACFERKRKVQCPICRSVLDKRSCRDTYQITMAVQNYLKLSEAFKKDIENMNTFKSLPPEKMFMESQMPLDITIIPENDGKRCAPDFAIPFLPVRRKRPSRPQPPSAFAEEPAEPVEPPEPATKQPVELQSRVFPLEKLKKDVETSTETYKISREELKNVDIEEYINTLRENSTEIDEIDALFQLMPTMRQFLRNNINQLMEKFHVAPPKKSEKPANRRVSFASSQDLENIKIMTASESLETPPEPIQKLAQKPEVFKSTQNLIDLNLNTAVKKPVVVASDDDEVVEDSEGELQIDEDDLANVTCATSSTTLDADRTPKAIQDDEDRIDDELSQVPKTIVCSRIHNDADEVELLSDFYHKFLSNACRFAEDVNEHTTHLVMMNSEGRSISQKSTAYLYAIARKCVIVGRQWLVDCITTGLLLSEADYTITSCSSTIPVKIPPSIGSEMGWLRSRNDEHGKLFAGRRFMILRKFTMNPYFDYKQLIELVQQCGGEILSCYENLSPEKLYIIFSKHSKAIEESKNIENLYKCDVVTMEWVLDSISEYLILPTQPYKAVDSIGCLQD
The test can be described thus: two-hybrid; BRC-1 (wild type or mutant) in pBridge in Y2HGold mated with BRD-1 in pACT2.2 in Y187; his3 reporter, serial dilutions of diploids on -His -Trp -Leu against -Trp -Leu solid media.

In test [2] the target is T2, BRC-1^triA (I23A, I59A, R61A), full length (C. elegans) (UniProt B6VQ60).
T2 sequence: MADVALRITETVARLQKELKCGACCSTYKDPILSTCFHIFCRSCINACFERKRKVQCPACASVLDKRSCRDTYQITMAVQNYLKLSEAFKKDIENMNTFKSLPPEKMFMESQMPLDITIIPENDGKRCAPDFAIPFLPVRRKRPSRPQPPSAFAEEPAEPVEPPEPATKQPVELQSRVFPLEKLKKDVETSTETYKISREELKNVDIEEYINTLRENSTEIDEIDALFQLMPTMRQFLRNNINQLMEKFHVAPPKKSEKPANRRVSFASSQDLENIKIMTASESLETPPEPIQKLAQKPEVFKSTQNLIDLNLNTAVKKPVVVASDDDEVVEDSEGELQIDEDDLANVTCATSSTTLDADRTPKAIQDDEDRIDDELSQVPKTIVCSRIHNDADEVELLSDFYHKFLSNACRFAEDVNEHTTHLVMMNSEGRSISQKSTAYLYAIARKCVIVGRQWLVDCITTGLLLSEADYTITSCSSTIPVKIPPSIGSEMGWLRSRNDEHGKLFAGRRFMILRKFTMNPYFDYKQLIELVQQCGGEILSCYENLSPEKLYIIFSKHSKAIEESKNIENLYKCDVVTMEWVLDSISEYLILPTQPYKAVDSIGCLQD
Described as above.

B1: BRD-1 (C. elegans BARD1 ortholog), full length (protein, UniProt Q21209 1-702)
chain: MFENTKKALETFRTAIECVKCKKPRGDLQYLGSSCKHAYCWECIATFQQKPSGKRSSVARHMCPSCAFPLDTSKITEAHMLKTCFDTLSELNDLLQKVGTTSLTQAEFACTQNIFNKEKTPADAVEKFLETQAHMPDEMGQLGEEDDDLMCKDENRENSNSPELDIFHDYSKEASPTRNSTKRPSTVSVHERKPKRSSILKTSVKNEPAAPVVDLFASQVPQRTHQNDLLTPFIERRSTAPAATGVATYAQAFGSSSNPVKAEIIEEDIFSKAIPLTKRQASMSASAKKQPKLEPEEPEEVPSTSRSRKNSIKSDKIERRSQSPMSFGEKSMSVKSEQRRSSYGTRRGEAVLVNSIRNNRIPQLRSAVEAGTCVNEKEDGKTPLYVAVENSSLEAVKILVEAGAVINASCGSTLETTLHEAVRRQNTQIVEYLLSKGASIKIRNIAGKTVEEMAKSDPKIRKIIEKFKTEQRVLQPVVAPPKSRLHFVQLIDEKMLTESEKRKLPGKINIVPADMDSPTHVVVTVDLKTRVLNINKEHIGEILKAIIKSGMIVSRDWLRACIIDPSKVDDDRSYMVQKVRWMEGEVFENTIEQWKKTITKMQPKLFAGCKFFIPKPKYNFLDRPALFEIIRSAGGQAAAREPIIDEKDPPPYHNANLKPNFVLYSLTHDIGDKFRDCTKYNLVSEQWLIEAILGCSITTPPH
For the molecule B1, the binding entry in test [1] and in test [2] was “binds” each time.
